The target in this assay is biotinylated pY54-H3 peptide, pY54-H3 (44-59) (human). As to the kind of experiment: pull-down; biotinylated peptide on streptavidin-sepharose beads incubated with lysates of VCaP cells treated with 1 uM (R)-9b or SHP099 for 18 h; immunoblot for NCOR1 and NCOR2; pAKT peptide as control; only the target purified. For orientation: Immunoblotting shows a protein as a band on a membrane.

Sequences of proteins named here, by UniProt entry; tags and fusion partners are left off.
UniProt O75376: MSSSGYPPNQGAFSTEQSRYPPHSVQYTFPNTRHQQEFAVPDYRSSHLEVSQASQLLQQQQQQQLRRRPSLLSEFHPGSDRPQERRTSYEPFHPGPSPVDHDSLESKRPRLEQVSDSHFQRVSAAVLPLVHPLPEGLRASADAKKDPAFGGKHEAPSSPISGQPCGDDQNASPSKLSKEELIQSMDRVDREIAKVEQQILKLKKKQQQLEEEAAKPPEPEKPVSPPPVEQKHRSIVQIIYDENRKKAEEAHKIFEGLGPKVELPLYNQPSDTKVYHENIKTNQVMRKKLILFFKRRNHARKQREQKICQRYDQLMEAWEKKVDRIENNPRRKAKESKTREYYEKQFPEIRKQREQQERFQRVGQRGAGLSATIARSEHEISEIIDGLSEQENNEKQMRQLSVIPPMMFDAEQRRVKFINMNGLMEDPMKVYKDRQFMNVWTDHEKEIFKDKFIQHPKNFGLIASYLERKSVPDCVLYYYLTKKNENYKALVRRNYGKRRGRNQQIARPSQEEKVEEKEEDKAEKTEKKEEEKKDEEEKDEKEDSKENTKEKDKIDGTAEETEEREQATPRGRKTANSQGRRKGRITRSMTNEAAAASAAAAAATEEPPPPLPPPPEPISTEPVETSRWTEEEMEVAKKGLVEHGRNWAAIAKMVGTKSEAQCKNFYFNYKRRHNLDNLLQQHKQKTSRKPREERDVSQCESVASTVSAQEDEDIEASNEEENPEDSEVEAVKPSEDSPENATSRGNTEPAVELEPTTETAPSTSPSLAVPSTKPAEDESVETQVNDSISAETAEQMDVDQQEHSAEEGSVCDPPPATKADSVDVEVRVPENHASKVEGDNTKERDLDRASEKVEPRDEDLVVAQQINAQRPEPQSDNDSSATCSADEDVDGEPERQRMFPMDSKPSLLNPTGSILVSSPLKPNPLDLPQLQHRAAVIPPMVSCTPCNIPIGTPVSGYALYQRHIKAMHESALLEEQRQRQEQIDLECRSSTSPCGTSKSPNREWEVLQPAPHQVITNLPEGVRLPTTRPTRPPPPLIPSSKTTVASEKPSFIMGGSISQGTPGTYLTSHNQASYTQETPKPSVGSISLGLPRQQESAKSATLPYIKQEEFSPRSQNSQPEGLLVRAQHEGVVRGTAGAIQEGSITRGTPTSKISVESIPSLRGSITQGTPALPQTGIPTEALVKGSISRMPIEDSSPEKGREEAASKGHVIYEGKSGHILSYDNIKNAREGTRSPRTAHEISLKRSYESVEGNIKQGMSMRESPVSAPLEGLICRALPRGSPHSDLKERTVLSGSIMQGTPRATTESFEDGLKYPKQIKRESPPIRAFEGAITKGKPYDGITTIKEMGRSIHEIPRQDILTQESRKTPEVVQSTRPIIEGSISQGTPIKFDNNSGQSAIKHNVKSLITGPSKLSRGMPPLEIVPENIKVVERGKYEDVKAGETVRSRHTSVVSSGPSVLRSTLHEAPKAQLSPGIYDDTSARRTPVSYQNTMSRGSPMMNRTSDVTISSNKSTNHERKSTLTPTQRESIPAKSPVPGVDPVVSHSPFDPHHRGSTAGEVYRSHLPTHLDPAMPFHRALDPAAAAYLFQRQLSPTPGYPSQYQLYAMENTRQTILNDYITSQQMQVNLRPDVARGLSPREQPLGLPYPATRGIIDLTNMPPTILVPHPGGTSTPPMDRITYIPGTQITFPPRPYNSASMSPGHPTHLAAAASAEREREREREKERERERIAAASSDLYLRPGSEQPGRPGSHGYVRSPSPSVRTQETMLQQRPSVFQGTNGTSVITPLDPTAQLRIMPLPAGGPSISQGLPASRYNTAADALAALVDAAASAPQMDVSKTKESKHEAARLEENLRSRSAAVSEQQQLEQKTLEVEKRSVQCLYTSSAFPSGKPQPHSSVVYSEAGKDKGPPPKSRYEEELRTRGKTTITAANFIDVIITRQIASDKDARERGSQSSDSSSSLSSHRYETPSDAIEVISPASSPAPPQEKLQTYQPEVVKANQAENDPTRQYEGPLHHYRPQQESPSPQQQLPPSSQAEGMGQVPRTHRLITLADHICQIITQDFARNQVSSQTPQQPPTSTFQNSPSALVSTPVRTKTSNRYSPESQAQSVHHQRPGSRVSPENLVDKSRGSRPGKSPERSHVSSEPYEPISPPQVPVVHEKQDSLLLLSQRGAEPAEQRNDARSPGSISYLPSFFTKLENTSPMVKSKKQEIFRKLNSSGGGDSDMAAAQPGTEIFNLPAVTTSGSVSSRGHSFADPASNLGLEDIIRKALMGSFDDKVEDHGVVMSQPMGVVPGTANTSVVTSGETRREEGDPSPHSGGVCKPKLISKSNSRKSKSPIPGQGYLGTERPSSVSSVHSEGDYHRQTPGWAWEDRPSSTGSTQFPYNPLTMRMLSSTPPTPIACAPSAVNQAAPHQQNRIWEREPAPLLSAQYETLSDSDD

No constants are given. Whether binding was seen depends on the method and setting. Binding seen in cells or lysates may run through a third protein. Some results given as binding are weak or reduced against the parent protein; the word gives no strength.

NCOR1 (from UniProt O75376 1-2440): the binding entry is given as “binds”.

For the origin of these results see publication PMC11224269.
